# In PubChem BioAssay AID445 (National Center for Advancing Translational Sciences (NCATS), 2006):
# Some of the results follow. The main result of the screen is listed elsewhere. These columns were measured beside it and carry no call. Compounds called inactive in the main read-out are mostly missing here. Potencies come from curve fits of mixed quality, noted in brackets.
# Assay: IkB Signaling
# Settings: ABC-DLBCL IkBa-CBG/CBR dual luciferase ratio (green luciferase fused to IkBa over red control in OCI-Ly3 lymphoma cells), 4 h
# In short: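 In this assay, an IκBα–CBG68 fusion accumulates when IKK-driven degradation is blocked; native CBR normalizes for cell number. OCI-Ly3 cells were treated 4 h with compound and doxycycline, then green and red light read after Chroma-Glo addition.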
# [1] = measured here: control luc red channel unless noted
smiles,measurement,setting,value
CCOc1ccc(NS(=O)(=O)c2ccc3nc(-c4ccccc4)[nH]c3c2)cc1,AC50,measured here: IkB-luc green channel,"39.8 µM [rising, single point]"
same,AC50,measured here: control luc red channel,"15.8 µM [falling, partial curve]"
Cc1ccc(C)c(N2CCN(C(=O)CN(C)S(=O)(=O)c3ccc4c(c3)CCC(=O)N4)CC2)c1,AC50,[1],"12.6 µM [falling, partial curve]"
Cc1nn(-c2ccccc2)c2sc(C(=O)Nc3cccc(O)c3)cc12,AC50,[1],"25.1 µM [falling, single point]"
COc1cc(CN(C(=O)COc2ccc(Cl)c(C)c2)c2ccccn2)cc(OC)c1OC,AC50,[1],"39.8 µM [falling, single point]"
COc1ccc(CCNC(=O)CCCn2nc(C)c3sc4ccccc4c3c2=O)cc1OC,AC50,[1],"10 µM [falling, partial curve]"
CCc1ccccc1Nc1nn2c(=O)c3ccc(C(=O)NC4CCCCC4)cc3nc2s1,AC50,[1],"2.51 µM [falling, partial curve, poor fit]"
Cc1ccc(NC(=O)CN(c2cc(C)cc(C)c2)S(=O)(=O)c2c(C)noc2C)nc1,AC50,[1],"10 µM [falling, partial curve]"
CCOC(=O)c1c(N)n(-c2cccc(C)c2C)c2nc3ccccc3nc12,AC50,[1],"6.31 µM [rising, full curve]"
CCOC(=O)Cn1nnnc1C(CC)N(Cc1cccs1)Cc1cc2ccc(OC)cc2[nH]c1=O (stereo not drawn),AC50,[1],"39.8 µM [falling, single point]"
COc1cccc2c1Oc1ncccc1N(c1ccc(C(=O)NCc3cccc(C)c3)s1)C2,AC50,[1],"12.6 µM [falling, partial curve]"
COc1ccc(/C=C/c2nc(C#N)c(N3CCC(C)CC3)o2)cc1OC,AC50,[1],"39.8 µM [falling, single point]"
COc1cc(C2=NOC(C(=O)N3CCCc4ccccc43)C2)cc(OC)c1OC (stereo not drawn),AC50,[1],"12.6 µM [falling, partial curve]"
CSc1ccc(CCNC(=O)c2ccc(CS(=O)Cc3ccc(Cl)cc3)o2)cc1 (stereo not drawn),AC50,[1],"15.8 µM [falling, partial curve]"
Cc1cccc(-c2nc(CSCC(=O)N3CCN(c4cccc(C)c4C)CC3)c(C)o2)c1,AC50,[1],"25.1 µM [falling, single point]"
Cc1ccc(Cl)cc1NC(=O)c1cc(S(=O)(=O)N2CCCCCC2)cn1C,AC50,[1],"7.94 µM [falling, partial curve]"
CCc1ccc2c(c1)NC(c1cccnc1)=NC(c1ccc(C(C)(C)C)cc1)=N2,AC50,[1],"20 µM [falling, single point]"
COc1cc(C2CC(=O)Nc3c2c(C)nn3-c2nncc(-c3ccccc3)n2)cc(OC)c1OC (stereo not drawn),AC50,[1],"12.6 µM [falling, partial curve]"

# Retrieved one by one from the entries so far:
smiles,measurement,setting,value
COc1ccc(CCNC(=O)CCCn2nc(C)c3sc4ccccc4c3c2=O)cc1OC,AC50,[1],"10 µM [falling, partial curve]"
CCOC(=O)c1c(N)n(-c2cccc(C)c2C)c2nc3ccccc3nc12,AC50,[1],"6.31 µM [rising, full curve]"
